Reference: publication PMC6796897
No constants are given. Whether binding was seen depends on the method and setting. Binding seen in cells or lysates may run through a third protein. Some entries that bind do so weakly or less than the wild type.

Sequences of proteins named here, by UniProt entry; tags and fusion partners are left off.
UniProt P62821: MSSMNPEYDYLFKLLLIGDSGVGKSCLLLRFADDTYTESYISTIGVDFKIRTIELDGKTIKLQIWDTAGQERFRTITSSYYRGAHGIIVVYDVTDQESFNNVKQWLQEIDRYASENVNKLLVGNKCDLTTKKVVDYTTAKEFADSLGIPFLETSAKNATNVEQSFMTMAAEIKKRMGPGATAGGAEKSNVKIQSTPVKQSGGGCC
UniProt P58801: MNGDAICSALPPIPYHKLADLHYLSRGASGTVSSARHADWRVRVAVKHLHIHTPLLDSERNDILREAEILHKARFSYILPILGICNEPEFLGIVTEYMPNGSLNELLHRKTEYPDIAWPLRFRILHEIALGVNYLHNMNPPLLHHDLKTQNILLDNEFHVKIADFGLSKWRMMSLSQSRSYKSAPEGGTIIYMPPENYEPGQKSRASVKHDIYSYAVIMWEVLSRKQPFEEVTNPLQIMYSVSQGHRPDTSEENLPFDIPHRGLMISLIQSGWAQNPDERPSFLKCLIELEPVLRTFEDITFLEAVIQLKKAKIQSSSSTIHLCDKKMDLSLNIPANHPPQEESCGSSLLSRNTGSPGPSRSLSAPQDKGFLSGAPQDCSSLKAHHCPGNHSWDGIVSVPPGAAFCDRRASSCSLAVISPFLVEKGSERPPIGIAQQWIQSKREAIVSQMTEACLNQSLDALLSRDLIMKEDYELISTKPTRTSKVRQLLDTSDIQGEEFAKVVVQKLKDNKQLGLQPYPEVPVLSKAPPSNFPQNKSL

Columns and labels:
[1] = target: Rab1a (murine, myc-tagged) (mouse) (UniProt P62821); assay: co-IP; tagged proteins overexpressed in HEK293T cells; lysed in IP buffer (50 mM Tris, 150 mM NaCl, 2 mM EDTA, 1% NP-40); IP with anti-myc or anti-HA, 4 °C; immunoblot
[2] = target: Rip2 (murine, HA-tagged) (mouse) (UniProt P58801); assay: as above

| binding [1] | binding [2] | Substance |
| --- | --- | --- |
| binds | – | Rip2 (murine, HA-tagged) (from UniProt P58801 1-539) |
| – | binds | Rab1a (murine, myc-tagged) (from UniProt P62821 1-205) |
